Measured values published in PMC7476715.
No constants are given. Whether binding was seen depends on the method and setting. Binding seen in cells or lysates may run through a third protein. Some entries that bind do so weakly or less than the wild type.

Protein sequences, listed by entry. Tags and fused reporters are not part of them.
UniProt P11881: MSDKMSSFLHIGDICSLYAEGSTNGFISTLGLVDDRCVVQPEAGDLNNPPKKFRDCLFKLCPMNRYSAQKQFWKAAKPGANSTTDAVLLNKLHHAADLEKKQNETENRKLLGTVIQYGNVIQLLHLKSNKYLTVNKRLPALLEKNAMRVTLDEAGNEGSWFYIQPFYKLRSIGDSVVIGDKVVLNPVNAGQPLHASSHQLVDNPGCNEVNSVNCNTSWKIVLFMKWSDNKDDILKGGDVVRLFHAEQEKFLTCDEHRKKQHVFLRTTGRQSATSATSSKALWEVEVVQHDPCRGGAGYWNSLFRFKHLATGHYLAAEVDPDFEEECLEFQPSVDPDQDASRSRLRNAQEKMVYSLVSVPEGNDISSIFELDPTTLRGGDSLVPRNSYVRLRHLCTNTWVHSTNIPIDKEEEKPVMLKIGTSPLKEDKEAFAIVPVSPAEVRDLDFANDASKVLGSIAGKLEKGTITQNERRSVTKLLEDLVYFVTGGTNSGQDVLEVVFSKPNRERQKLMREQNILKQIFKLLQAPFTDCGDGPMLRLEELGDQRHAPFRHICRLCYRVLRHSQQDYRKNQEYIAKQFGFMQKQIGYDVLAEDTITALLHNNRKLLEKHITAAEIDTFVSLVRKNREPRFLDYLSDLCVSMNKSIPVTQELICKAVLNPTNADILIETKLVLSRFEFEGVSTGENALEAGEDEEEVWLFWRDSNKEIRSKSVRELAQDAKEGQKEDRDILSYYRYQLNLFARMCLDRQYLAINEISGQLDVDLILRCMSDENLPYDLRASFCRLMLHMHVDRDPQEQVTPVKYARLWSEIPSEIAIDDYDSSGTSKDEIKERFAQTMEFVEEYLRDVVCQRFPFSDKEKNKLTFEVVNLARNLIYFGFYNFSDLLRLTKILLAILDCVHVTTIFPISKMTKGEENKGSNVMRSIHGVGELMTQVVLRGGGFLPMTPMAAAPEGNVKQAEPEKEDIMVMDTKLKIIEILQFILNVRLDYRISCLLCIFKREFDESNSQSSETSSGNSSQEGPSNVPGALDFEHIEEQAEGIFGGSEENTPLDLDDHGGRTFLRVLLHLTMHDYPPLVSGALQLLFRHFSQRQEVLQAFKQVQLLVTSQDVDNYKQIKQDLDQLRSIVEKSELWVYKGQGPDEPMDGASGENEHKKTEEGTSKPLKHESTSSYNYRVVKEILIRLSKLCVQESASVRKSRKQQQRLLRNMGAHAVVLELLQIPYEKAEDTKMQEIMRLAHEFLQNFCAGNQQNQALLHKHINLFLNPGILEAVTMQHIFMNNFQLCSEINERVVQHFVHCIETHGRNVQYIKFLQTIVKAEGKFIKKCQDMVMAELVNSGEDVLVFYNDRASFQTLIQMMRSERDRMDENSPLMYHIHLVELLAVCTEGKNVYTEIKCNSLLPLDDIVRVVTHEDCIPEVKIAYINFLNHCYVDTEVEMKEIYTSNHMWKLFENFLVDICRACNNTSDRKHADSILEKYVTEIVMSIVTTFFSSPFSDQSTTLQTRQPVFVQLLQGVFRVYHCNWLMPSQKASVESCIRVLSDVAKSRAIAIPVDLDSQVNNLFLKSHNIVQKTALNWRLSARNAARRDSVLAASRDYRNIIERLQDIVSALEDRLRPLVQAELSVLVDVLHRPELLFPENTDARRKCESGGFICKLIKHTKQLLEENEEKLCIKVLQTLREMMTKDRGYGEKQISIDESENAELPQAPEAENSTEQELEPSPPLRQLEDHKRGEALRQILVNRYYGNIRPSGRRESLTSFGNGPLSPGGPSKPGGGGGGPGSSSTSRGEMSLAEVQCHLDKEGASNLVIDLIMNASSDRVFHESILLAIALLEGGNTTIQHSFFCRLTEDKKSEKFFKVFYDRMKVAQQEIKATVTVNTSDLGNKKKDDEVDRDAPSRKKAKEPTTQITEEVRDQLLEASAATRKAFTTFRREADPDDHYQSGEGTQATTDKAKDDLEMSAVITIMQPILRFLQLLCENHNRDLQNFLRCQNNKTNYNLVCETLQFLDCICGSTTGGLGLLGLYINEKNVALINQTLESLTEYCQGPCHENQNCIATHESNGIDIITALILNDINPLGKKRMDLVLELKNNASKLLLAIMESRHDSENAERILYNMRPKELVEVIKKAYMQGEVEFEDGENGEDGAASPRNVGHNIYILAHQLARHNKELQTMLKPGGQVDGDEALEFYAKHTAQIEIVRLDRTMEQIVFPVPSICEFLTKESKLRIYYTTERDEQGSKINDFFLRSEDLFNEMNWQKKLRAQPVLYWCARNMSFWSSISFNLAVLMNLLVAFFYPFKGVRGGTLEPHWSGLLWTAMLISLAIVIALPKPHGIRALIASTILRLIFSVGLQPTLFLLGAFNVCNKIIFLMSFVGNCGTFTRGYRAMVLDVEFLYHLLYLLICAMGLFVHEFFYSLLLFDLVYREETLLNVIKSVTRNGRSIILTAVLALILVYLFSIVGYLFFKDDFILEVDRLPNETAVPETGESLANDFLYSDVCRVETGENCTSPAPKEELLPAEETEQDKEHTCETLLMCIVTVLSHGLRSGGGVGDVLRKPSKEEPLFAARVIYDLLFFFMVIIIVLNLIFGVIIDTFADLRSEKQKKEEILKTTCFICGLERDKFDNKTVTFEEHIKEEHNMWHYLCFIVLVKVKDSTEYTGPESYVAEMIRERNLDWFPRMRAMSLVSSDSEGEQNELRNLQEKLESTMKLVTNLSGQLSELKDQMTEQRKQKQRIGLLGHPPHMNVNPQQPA

Biological target: T1, Contactin-associated protein-like 2 (Caspr2), endogenous in mouse cerebellar synaptosomes (mouse (endogenous in cerebellar synaptosomes)) (UniProt Q9CPW0)
T1 sequence: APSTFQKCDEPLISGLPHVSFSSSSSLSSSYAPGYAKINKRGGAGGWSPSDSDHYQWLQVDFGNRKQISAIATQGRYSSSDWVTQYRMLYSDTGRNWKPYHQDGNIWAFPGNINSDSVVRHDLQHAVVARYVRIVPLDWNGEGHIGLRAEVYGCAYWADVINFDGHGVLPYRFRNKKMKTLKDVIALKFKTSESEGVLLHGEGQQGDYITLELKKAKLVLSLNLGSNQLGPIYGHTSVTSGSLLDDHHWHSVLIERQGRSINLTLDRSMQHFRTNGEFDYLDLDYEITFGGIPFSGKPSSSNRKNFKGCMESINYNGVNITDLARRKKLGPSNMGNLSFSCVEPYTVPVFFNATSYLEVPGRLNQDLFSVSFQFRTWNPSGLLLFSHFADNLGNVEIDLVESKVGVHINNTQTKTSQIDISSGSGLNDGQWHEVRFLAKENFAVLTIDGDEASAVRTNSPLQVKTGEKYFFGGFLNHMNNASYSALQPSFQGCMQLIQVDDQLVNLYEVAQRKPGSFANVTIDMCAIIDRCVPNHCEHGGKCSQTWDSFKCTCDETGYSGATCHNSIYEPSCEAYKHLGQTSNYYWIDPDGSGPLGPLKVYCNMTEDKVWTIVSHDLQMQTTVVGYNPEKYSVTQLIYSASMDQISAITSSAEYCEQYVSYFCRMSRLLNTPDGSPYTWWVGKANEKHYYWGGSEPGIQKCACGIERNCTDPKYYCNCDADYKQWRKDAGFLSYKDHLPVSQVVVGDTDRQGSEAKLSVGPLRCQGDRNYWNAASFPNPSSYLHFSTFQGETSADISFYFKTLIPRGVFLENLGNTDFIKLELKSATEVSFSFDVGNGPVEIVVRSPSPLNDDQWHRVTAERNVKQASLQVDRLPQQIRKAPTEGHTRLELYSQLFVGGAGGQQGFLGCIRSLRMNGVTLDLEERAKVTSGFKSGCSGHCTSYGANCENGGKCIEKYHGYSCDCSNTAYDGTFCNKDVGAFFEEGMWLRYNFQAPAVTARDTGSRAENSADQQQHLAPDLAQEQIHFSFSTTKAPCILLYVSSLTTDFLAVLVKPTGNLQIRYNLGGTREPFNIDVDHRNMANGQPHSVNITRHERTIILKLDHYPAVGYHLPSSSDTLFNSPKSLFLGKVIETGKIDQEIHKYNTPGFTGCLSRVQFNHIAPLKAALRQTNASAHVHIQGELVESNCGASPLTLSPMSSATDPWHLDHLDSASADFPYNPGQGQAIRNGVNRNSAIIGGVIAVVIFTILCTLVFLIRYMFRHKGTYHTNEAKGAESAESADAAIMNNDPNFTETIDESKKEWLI
Experiment: co-IP; lysate of P14 WT mouse cerebellar synaptosomes, immunoprecipitation with anti-Caspr2 antibody or control IgG, immunoblotting for Caspr2 and IP3R1; 4 °C

With “type 1 inositol 1,4,5-trisphosphate receptor (IP3R1), endogenous in mouse cerebellar synaptosomes (from UniProt P11881 1-2749)” the binding was “binds”.
